Data from article PMC9964033.

Protein sequences, listed by entry. Tags and fused reporters are not part of them.
UniProt Q7TMB8: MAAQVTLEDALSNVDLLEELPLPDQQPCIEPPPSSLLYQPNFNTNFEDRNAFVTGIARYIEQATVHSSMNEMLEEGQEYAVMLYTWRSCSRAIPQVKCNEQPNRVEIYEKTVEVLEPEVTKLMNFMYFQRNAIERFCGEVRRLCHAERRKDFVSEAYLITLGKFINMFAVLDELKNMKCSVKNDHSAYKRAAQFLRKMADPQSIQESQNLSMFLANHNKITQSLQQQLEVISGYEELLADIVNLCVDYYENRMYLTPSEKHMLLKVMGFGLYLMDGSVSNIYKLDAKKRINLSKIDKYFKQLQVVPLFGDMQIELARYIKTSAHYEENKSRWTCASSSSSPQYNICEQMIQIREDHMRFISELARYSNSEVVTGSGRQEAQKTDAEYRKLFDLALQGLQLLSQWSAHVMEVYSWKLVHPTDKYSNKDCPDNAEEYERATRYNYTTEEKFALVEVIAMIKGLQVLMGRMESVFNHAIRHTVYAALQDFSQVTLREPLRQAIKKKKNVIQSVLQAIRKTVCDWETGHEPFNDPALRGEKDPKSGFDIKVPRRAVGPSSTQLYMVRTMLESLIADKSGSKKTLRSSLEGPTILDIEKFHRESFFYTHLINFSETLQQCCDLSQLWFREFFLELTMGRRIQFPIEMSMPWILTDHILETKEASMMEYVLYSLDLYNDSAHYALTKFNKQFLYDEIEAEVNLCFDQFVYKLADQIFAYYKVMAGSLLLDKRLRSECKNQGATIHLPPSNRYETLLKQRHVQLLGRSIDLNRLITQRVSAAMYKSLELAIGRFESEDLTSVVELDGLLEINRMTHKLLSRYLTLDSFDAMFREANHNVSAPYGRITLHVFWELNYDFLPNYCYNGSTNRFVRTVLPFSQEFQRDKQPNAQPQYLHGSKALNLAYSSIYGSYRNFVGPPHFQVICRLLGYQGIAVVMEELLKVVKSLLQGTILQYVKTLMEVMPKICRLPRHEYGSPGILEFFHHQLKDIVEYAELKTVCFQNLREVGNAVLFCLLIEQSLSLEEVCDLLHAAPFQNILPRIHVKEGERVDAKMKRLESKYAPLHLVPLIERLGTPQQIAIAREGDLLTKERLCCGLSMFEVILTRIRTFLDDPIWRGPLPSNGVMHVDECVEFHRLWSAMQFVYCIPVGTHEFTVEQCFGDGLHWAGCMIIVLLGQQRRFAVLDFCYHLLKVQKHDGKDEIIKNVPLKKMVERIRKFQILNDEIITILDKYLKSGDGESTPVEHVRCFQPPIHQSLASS
UniProt Q91VC3: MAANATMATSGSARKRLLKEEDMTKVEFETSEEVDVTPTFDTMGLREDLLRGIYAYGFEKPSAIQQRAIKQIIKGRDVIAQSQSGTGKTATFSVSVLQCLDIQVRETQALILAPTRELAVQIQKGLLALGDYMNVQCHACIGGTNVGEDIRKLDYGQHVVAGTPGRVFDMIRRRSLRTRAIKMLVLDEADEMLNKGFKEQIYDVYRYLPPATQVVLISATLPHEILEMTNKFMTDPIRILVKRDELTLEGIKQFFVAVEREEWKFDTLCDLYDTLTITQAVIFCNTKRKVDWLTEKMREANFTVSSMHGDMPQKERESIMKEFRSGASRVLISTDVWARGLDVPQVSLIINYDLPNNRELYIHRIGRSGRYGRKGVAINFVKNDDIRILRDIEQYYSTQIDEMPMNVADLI
UniProt P63073: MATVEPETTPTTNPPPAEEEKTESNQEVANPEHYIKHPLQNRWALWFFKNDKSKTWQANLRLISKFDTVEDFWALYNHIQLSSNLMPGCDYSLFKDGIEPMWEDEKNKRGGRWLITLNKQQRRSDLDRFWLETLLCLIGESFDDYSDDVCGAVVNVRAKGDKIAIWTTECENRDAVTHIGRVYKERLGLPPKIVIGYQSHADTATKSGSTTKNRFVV

biological target: T1, CPEB3-HA expressed in mouse primary cortical neurons under a human synapsin promoter (mouse) (UniProt Q7TN99); assay: affinity purification with mass spectrometry; CPEB3-HA expressed in mouse primary cortical neurons under a human synapsin promoter, immunoprecipitated via the HA tag, on-bead trypsin digestion, LC-MS/MS; three samples
T1 sequence: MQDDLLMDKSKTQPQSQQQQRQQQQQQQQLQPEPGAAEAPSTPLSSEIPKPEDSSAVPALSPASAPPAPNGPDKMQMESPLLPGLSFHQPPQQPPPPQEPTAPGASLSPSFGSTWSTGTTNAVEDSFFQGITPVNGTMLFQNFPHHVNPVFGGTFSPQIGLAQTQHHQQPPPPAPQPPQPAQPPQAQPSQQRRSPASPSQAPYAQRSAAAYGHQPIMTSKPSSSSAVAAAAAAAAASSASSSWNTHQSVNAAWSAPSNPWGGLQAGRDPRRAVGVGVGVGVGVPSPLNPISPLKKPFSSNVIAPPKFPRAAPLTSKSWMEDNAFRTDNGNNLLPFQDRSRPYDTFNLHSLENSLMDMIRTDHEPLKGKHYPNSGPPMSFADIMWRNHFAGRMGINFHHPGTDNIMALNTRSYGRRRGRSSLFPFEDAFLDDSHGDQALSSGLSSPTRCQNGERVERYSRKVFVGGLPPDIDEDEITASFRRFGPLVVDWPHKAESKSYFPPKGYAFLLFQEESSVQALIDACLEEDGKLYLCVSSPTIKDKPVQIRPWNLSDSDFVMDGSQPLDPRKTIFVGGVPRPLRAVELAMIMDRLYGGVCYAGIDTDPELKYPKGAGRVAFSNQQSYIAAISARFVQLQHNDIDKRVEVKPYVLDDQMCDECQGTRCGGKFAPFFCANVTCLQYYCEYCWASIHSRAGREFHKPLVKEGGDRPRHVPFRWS

Substance | binding
CYFIP1 (mouse neurons) (from UniProt Q7TMB8 1-1253) | binds
Eukaryotic Translation Initiation Factor 4A3 (mouse neurons) (from UniProt Q91VC3 1-411) | binds
Mago Nashi (mouse neurons) | binds
eIF4e (mouse neurons) (from UniProt P63073 1-217) | binds

These are yes or no findings as the source states them, for the method shown. Binding seen in cells or lysates may run through a third protein. Here binding means that the protein was enriched with, or labelled near, the bait; the list need not be complete. Sequences can lack the tags named with a protein.
